# Test results as given in the supplement of paper PMC12067093, “Discovery and optimisation of a covalent ligand for TRIM25 and its application to targeted protein ubiquitination” (Chemical Science, 2025).
# Chains of the proteins cited; added tags and fusions are not shown. Lines headed by an entry give the natural chain unless they say otherwise; changes in a name come on top.
# UniProt Q04721: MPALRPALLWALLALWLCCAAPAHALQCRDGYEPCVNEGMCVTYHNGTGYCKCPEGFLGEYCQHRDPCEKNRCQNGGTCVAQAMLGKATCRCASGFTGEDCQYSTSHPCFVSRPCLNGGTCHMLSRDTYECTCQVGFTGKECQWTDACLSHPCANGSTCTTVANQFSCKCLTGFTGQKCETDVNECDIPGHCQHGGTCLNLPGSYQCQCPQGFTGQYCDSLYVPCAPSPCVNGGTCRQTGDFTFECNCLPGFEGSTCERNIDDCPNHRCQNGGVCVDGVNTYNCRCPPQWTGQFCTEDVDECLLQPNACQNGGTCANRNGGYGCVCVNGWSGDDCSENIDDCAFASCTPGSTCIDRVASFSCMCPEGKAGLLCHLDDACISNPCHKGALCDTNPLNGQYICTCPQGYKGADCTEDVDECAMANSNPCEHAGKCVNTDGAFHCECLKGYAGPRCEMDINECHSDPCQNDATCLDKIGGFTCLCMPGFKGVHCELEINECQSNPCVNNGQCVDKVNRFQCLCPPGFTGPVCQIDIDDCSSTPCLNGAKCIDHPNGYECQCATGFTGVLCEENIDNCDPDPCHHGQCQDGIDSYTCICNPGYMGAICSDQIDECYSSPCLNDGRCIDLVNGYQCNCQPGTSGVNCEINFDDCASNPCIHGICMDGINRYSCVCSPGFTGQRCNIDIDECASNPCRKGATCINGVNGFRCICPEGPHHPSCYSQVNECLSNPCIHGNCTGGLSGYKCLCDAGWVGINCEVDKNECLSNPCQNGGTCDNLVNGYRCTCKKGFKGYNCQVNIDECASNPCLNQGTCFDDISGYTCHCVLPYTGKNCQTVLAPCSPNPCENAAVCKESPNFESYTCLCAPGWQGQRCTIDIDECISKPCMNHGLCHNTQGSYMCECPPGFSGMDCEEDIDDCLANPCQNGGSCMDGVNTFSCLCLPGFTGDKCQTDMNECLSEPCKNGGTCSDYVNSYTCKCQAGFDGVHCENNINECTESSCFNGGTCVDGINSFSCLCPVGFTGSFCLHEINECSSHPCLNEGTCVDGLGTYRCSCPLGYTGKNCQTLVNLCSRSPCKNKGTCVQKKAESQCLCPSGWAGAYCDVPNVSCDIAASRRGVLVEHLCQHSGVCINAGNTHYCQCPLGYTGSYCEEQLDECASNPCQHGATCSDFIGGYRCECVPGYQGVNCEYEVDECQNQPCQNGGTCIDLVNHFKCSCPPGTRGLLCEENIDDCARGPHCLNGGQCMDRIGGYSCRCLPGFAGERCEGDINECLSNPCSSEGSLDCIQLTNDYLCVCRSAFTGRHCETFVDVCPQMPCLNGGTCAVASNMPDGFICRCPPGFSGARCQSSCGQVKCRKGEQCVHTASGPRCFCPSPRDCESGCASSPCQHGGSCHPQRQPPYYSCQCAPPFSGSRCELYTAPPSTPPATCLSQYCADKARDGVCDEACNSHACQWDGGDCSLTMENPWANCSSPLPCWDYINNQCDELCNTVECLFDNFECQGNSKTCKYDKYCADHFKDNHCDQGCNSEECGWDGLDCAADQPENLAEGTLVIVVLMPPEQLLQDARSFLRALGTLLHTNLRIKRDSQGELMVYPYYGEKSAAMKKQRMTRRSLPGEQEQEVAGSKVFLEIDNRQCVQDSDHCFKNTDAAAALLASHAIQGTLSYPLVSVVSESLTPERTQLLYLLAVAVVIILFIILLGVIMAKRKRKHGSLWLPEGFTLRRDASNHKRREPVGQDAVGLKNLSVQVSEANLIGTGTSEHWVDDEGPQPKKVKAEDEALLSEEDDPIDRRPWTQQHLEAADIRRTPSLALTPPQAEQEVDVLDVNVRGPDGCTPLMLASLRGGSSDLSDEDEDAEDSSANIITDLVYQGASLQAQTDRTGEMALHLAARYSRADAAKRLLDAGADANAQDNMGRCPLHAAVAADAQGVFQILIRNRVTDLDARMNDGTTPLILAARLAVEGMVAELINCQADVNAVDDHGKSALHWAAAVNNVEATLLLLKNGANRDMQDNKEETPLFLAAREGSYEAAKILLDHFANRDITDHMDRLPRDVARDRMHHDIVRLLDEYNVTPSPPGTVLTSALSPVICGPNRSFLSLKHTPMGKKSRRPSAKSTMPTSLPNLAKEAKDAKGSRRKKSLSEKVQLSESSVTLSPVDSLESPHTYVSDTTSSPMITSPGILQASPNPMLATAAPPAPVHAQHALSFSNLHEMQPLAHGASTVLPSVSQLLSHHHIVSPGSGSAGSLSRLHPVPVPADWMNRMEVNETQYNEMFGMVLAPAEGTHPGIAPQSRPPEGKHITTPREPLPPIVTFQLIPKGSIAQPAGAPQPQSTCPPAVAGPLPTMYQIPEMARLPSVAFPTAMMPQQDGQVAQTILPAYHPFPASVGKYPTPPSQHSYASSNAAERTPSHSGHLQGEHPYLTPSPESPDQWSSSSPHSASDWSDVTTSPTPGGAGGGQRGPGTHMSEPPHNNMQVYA
# UniProt Q86WI3: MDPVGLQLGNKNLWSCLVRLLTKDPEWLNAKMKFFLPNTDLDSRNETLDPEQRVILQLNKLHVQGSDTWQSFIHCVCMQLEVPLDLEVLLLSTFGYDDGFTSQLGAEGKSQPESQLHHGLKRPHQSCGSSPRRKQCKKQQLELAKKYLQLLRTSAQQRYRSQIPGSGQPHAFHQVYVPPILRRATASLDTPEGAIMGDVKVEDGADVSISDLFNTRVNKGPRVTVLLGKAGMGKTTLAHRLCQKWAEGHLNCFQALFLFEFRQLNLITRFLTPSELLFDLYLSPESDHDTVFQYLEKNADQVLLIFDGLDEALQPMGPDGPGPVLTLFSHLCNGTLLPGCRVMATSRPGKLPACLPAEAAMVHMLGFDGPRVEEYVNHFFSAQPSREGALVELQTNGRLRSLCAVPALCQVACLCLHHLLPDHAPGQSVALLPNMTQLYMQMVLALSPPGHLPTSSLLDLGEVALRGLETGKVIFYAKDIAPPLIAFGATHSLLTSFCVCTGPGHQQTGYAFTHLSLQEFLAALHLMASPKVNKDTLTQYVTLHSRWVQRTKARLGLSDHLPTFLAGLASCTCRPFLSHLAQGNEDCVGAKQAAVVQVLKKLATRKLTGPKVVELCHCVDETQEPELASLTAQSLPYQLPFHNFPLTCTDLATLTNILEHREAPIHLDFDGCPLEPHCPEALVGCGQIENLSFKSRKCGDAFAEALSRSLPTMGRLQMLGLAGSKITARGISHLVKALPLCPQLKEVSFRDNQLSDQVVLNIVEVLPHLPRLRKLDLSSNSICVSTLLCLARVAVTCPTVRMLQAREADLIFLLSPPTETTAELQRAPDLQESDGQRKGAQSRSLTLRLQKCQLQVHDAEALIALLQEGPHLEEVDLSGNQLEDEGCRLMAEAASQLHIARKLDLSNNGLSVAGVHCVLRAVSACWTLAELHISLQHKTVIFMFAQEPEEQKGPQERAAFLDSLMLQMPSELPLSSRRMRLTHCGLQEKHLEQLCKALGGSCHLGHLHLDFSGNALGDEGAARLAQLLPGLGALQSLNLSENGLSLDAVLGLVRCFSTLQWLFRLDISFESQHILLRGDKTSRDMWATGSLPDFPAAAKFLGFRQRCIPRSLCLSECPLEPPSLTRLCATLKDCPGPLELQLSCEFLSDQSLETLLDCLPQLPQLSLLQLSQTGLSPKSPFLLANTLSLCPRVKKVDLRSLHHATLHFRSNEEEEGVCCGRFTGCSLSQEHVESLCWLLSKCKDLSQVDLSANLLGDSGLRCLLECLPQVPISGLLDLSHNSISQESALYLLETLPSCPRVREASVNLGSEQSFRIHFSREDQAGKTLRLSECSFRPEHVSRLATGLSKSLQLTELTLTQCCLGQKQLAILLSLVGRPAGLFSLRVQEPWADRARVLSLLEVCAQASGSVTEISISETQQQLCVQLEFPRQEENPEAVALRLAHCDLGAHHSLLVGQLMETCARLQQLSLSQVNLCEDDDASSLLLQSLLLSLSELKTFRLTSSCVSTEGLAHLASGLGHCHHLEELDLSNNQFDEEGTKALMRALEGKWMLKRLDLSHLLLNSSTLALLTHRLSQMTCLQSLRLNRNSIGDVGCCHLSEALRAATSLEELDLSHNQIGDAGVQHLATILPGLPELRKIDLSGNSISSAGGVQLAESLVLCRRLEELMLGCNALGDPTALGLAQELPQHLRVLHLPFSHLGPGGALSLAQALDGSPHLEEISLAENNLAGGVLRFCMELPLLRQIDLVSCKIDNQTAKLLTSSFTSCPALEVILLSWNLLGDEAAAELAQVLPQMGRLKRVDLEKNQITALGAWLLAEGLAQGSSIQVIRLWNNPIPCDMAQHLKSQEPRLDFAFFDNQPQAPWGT
# UniProt Q9Y3C1: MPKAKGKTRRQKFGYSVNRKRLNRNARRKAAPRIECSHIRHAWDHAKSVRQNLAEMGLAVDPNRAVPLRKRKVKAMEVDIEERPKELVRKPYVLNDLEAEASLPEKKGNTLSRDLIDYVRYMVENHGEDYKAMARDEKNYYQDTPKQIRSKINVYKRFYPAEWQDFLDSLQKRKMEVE
# UniProt Q9HAN9, whole entry, looked up: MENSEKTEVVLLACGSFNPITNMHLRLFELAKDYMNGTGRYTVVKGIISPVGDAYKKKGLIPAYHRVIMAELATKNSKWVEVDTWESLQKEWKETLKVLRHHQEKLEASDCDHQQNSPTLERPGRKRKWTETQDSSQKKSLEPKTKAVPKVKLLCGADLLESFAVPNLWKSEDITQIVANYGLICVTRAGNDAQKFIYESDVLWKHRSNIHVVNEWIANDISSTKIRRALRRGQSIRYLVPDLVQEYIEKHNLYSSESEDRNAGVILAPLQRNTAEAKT
# UniProt Q8TAT6: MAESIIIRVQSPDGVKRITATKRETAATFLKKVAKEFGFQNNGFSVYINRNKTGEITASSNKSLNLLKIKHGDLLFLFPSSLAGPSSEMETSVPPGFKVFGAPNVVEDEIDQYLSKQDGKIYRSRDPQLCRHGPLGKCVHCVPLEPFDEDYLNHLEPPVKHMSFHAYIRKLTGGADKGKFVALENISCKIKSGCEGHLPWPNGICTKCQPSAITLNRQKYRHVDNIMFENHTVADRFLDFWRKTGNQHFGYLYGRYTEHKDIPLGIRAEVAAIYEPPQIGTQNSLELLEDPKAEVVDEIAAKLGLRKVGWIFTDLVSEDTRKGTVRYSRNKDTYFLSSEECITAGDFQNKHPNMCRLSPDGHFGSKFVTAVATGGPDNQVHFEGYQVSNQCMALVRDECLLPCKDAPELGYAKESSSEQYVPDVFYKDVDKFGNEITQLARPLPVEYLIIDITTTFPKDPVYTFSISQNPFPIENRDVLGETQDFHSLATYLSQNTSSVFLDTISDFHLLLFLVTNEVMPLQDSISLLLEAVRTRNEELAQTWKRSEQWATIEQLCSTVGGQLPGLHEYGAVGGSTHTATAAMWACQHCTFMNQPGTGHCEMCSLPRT
# UniProt Q86UT6, whole entry, looked up: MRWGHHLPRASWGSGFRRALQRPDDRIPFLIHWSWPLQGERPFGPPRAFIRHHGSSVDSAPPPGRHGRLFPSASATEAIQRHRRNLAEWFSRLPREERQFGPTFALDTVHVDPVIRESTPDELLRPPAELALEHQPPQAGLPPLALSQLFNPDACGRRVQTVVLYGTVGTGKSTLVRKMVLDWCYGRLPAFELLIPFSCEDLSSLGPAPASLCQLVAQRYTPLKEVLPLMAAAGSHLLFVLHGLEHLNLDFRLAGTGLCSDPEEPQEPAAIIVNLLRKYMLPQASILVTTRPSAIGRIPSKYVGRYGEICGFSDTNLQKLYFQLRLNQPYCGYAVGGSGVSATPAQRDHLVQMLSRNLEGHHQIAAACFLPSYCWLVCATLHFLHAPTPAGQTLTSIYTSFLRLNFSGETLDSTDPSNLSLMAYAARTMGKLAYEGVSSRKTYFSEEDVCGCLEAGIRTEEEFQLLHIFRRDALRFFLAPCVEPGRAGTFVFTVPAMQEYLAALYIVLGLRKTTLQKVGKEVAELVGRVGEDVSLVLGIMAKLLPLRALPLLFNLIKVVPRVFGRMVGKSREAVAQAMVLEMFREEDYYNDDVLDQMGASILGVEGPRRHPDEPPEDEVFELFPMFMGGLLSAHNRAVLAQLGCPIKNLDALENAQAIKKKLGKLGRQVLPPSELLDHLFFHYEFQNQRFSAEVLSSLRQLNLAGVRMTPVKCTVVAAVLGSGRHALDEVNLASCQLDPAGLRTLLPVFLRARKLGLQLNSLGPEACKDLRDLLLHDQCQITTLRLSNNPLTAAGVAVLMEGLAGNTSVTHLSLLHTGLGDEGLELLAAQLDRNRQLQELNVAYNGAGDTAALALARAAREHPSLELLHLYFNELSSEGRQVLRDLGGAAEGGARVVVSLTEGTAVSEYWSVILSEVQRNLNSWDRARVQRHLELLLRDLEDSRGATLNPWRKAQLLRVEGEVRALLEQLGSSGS
# UniProt P61916: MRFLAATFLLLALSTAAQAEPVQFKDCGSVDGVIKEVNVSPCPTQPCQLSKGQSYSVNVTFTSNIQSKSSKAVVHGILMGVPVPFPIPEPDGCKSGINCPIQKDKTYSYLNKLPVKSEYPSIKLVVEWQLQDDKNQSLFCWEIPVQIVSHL
# UniProt Q9NPE3: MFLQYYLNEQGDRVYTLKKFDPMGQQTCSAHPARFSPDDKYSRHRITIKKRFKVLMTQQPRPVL
# This is one part of the list.
# Compound: Cc1cc(ccc1-c1ccccc1)C(=O)N1CCCN(CC1)C(=O)CCl [compound 10]
# Assay: probe-labelled cysteine peptide fold change vs DMSO (competition) (log2 fold change); higher = less target engagement (more negative = stronger competition)
# Conditions: 50 µM; THP-1; incubation time: 4 h
# 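Further: competitive profiling in live THP-1 cells: cysteine peptides tagged with an iodoacetamide desthiobiotin (IA-DTB) probe, intensity after compound treatment relative to DMSO-treated cells.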
row,Target,probe-labelled cysteine peptide fold change
1,NSUN2_Q08J23_673+678_YEPDSANPDALQCPIVLCGWR (UniProt Q08J23),-0.0256
2,NSMCE4A_Q9NXX6_226_THTFHFLLGSIYGECPVPKPR (UniProt Q9NXX6),-0.626
3,NOTCH2_Q04721_870_CTIDIDECISK (UniProt Q04721),0.0219
4,NLRC5_Q86WI3_1671_RLEELMLGCNALGDPTALGLAQELPQHLR (UniProt Q86WI3),-0.138
5,NOP16_Q9Y3C1_36_IECSHIR (UniProt Q9Y3C1),-0.594
6,NMNAT1_Q9HAN9_111_LEASDCDHQQNSPTLERPGRK (UniProt Q9HAN9),-0.461
7,NPLOC4_Q8TAT6_130_SRDPQLCR (UniProt Q8TAT6),-0.0288
8,NSMCE2_Q96MF7_185_VCGHTYEEDAIVR (UniProt Q96MF7),-0.0323
9,NLRX1_Q86UT6_259_LAGTGLCSDPEEPQEPAAIIVNLLR (UniProt Q86UT6),0.439
10,NT5C3A_Q9H0P0_73_VEEIICGLIK (UniProt Q9H0P0),0.00976
11,NOP2_P46087_463_VLLDAPCSGTGVISK (UniProt P46087),0.0458
12,NSD2_O96028_594_NLSDACK (UniProt O96028),0.0938
13,NSDHL_Q15738_340_VALAGTFHYYSCER (UniProt Q15738),0.183
14,NOP56_O00567_384_IDCFSEVPTSVFGEK (UniProt O00567),0.161
15,NLRX1_Q86UT6_735_HALDEVNLASCQLDPAGLR (UniProt Q86UT6),0.118
16,NMT2_O60551_485_CPGTDSEK (UniProt O60551),-0.0787
17,NOC4L_Q9BVI4_509_KGPEPVPLEFIPAQGLLGRPGELCAQHFTLS (UniProt Q9BVI4),0.122
18,NLRP7_Q8WX94_540_ELEATFGCR (UniProt Q8WX94),-0.135
19,NPC2_P61916_93_AVVHGILMGVPVPFPIPEPDGCK (UniProt P61916),0.207

# A second format for part of the listing above:
row | Target | probe-labelled cysteine peptide fold change
6 | NMNAT1_Q9HAN9_111_LEASDCDHQQNSPTLERPGRK (UniProt Q9HAN9) | -0.461
19 | NPC2_P61916_93_AVVHGILMGVPVPFPIPEPDGCK (UniProt P61916) | 0.207

# The listing continues:

row,Target,probe-labelled cysteine peptide fold change
1,NT5C_Q8TCD5_166_GQEETPSWEHILFTCCHNR (UniProt Q8TCD5),-0.119
2,NOP10_Q9NPE3_28_FDPMGQQTCSAHPAR (UniProt Q9NPE3),0.0234
3,NSD1_Q96L73_2077_CGAPNCSGFLGVRPK (UniProt Q96L73),-0.475
4,NOP58_Q9Y2X3_106_LNLSCIHSPVVNELMR (UniProt Q9Y2X3),0.0532
5,NOTCH1_P46531_2140_SPQLHGAPLGGTPTLSPPLCSPNGYLGSLKPGVQGK (UniProt P46531),-0.771
6,NOL9_Q5SY16_219_WSMQNFSPQCSIVLLEHLK (UniProt Q5SY16),0.0193
7,NR2C1_P13056_200_SSNCAASTEK (UniProt P13056),-0.445
8,NSUN5_Q96P11_278+279_AGVSCCELAEEDFLAVSPSDPR (UniProt Q96P11),-0.0782
9,NOL6_Q9H6R4_1034_QAVDSPAASFCR (UniProt Q9H6R4),-0.157
10,NT5DC1_Q5TFE4_139_YYFYDNYFDLPGALLCAR (UniProt Q5TFE4),1.46
11,NRDC_O43847_690_IVNTPQGCLWYK (UniProt O43847),0.0567
12,NLRC5_Q86WI3_917_KLDLSNNGLSVAGVHCVLR (UniProt Q86WI3),-0.426
13,NPLOC4_Q8TAT6_355_HPNMCR (UniProt Q8TAT6),-0.0444
14,NSMAF_Q92636_158_ASCLDK (UniProt Q92636),0.0358
15,NOP9_Q86U38_141_CGVHVLQSALLQLPR (UniProt Q86U38),0.629
16,NOB1_Q9ULX3_147_GHSACEPENLEFSSFMFWR (UniProt Q9ULX3),-0.15
17,NOTCH2_Q04721_427_GADCTEDVDECAMANSNPCEHAGK (UniProt Q04721),0.115
18,NTHL1_P78549_118_DAPVDHLGTEHCYDSSAPPK (UniProt P78549),-0.825
19,NOL8_Q76FK4_517_SDGPETTTQCK (UniProt Q76FK4),-0.194
